Taken from: PubChem BioAssay AID1259308 (NCATS, 2017)

Assay: 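Genes whose loss raises luciferase production in HEK293 cells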 (primary screen)
Cell system: human HEK293 embryonic kidney cells stably expressing firefly luciferase (HEK-CMV-Luc2-Hygro)
Reagents: single siRNA against human genes, 0.8 pmol siRNA per well
Duration: 72 h
Detection: 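Luciferase light (ONE-Glo) measured on one replicate plate set and viability (CellTiter-Glo) on the other, scaled to a negative control siRNA, with robust z-scores and luciferase per cell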
Scale: total luciferase, z-score and total luciferase, % of control: higher = more reporter protein produced; luciferase per cell, z-score: higher = more reporter output per viable cell; viable cells, % of control: higher = more viable cells
Hit rule: 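Active when the median/MAD z-score for overall luciferase is greater than 3; a gene was taken forward for validation with new siRNAs if at least two of its three siRNAs passed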
Calls: active = raised luciferase; inactive = no rise
The deposit covers about 59,000 reagents; below is a part drawn at random. About 1,510 of all reagents (2.6%) count as active. 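Calls use total luciferase alone and ignore viability, so some active siRNAs may act by altering cell number.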 Reagents against one gene are numbered here.

The first 3 entries as a preview:
| Gene | reagent | total luciferase, z-score | total luciferase, % of control | luciferase per cell, z-score | viable cells, % of control | call |
| --- | --- | --- | --- | --- | --- | --- |
| C20orf144 (chromosome 20 open reading frame 144) | 1 | -0.431 | 73.3 | 0.0139 | 81.6 | inactive |
| C20orf144 (chromosome 20 open reading frame 144) | 2 | -1.62 | 49.7 | -2.36 | 103 | inactive |
| C20orf144 (chromosome 20 open reading frame 144) | 3 | 6.41 | 209 | 4.37 | 74 | active |

Results, from the start:
| Gene | reagent | total luciferase, z-score | total luciferase, % of control | luciferase per cell, z-score | viable cells, % of control | call |
| --- | --- | --- | --- | --- | --- | --- |
| C20orf144 (chromosome 20 open reading frame 144) | 1 | -0.431 | 73.3 | 0.0139 | 81.6 | inactive |
| C20orf144 (chromosome 20 open reading frame 144) | 2 | -1.62 | 49.7 | -2.36 | 103 | inactive |
| C20orf144 (chromosome 20 open reading frame 144) | 3 | 6.41 | 209 | 4.37 | 74 | active |
| DEPDC1B (DEP domain containing 1B) | 1 | 0.209 | 86.1 | 0.317 | 88.5 | inactive |
| DEPDC1B (DEP domain containing 1B) | 2 | 1.81 | 118 | 2.12 | 75.3 | inactive |
| DEPDC1B (DEP domain containing 1B) | 3 | 0.0687 | 83.3 | -0.00579 | 93.2 | inactive |
| RAD52 (RAD52 DNA repair protein) | 1 | -1.47 | 52.6 | -1.76 | 93.4 | inactive |
| RAD52 (RAD52 DNA repair protein) | 2 | -1.42 | 53.6 | -2.07 | 103 | inactive |
| RAD52 (RAD52 DNA repair protein) | 3 | -0.334 | 75.2 | 1.98 | 49.9 | inactive |
| ZNF227 (zinc finger protein 227) | 1 | -0.73 | 67.4 | -0.211 | 79.6 | inactive |
| ZNF227 (zinc finger protein 227) | 2 | -1.08 | 60.3 | -1.3 | 95 | inactive |
| ZNF227 (zinc finger protein 227) | 3 | -0.626 | 69.4 | -0.969 | 100 | inactive |
| HDHD5 (haloacid dehalogenase like hydrolase domain containing 5) | 1 | 0.938 | 101 | 0.689 | 93.7 | inactive |
| HDHD5 (haloacid dehalogenase like hydrolase domain containing 5) | 2 | -0.704 | 67.9 | -0.714 | 91.6 | inactive |
| HDHD5 (haloacid dehalogenase like hydrolase domain containing 5) | 3 | 0.383 | 89.5 | 0.184 | 95.3 | inactive |
| FAM167A (family with sequence similarity 167 member A) | 1 | -0.44 | 73.1 | -0.628 | 96.4 | inactive |
| FAM167A (family with sequence similarity 167 member A) | 2 | -0.515 | 71.6 | -0.222 | 84.9 | inactive |
| FAM167A (family with sequence similarity 167 member A) | 3 | -0.768 | 66.6 | -0.446 | 83.7 | inactive |
| RAB3GAP2 (RAB3 GTPase activating non-catalytic protein subunit 2) | 1 | 0.62 | 94.2 | 1.18 | 77.3 | inactive |
| RAB3GAP2 (RAB3 GTPase activating non-catalytic protein subunit 2) | 2 | 0.219 | 86.3 | 0.528 | 83.9 | inactive |
| RAB3GAP2 (RAB3 GTPase activating non-catalytic protein subunit 2) | 3 | 1.02 | 102 | 2.02 | 67 | inactive |
| MAN2B2 (mannosidase alpha class 2B member 2) | 1 | -0.986 | 62.3 | -0.921 | 88.7 | inactive |
| MAN2B2 (mannosidase alpha class 2B member 2) | 2 | -1.81 | 45.8 | -0.564 | 59.4 | inactive |
| MAN2B2 (mannosidase alpha class 2B member 2) | 3 | 1.46 | 111 | 0.592 | 106 | inactive |
| RPL10P9 (ribosomal protein L10 pseudogene 9) | 1 | 0.73 | 96.4 | 0.734 | 88.8 | inactive |
| RPL10P9 (ribosomal protein L10 pseudogene 9) | 2 | -1.93 | 43.6 | -1.82 | 78.5 | inactive |
| RPL10P9 (ribosomal protein L10 pseudogene 9) | 3 | -3.05 | 21.2 | 0.456 | 21 | inactive |
| TPPP2 (tubulin polymerization promoting protein family member 2) | 1 | 0.242 | 86.7 | -0.266 | 104 | inactive |
| TPPP2 (tubulin polymerization promoting protein family member 2) | 2 | 0.516 | 92.2 | 0.197 | 97.8 | inactive |
| TPPP2 (tubulin polymerization promoting protein family member 2) | 3 | 0.162 | 85.1 | -0.673 | 114 | inactive |
| CCDC81 (coiled-coil domain containing 81) | 1 | 4.5 | 171 | 4.49 | 58.6 | active |
| CCDC81 (coiled-coil domain containing 81) | 2 | 0.932 | 100 | 0.383 | 101 | inactive |
| CCDC81 (coiled-coil domain containing 81) | 3 | -0.229 | 77.3 | -0.188 | 90.8 | inactive |
| CCN4 (cellular communication network factor 4) | 1 | 0.295 | 87.8 | -0.0308 | 98.9 | inactive |
| CCN4 (cellular communication network factor 4) | 2 | 0.297 | 87.8 | -0.243 | 105 | inactive |
| CCN4 (cellular communication network factor 4) | 3 | -0.734 | 67.3 | -1.1 | 101 | inactive |
| ZNF137P (zinc finger protein 137, pseudogene) | 1 | -0.944 | 63.1 | 1.87 | 43.1 | inactive |
| ZNF137P (zinc finger protein 137, pseudogene) | 2 | 0.78 | 97.4 | 1.11 | 81.2 | inactive |
| ZNF137P (zinc finger protein 137, pseudogene) | 3 | 0.945 | 101 | 1.21 | 81.8 | inactive |
| KLF17 (KLF transcription factor 17) | 1 | -1.59 | 50.3 | -0.721 | 68 | inactive |
| KLF17 (KLF transcription factor 17) | 2 | -1.41 | 53.9 | -1.71 | 94.5 | inactive |
| KLF17 (KLF transcription factor 17) | 3 | 0 | 81.9 | 0.12 | 88.7 | inactive |
| ABT1 (activator of basal transcription 1) | 1 | -1.42 | 53.7 | -1.71 | 94 | inactive |
| ABT1 (activator of basal transcription 1) | 2 | -0.318 | 75.6 | -0.191 | 88.8 | inactive |
| ABT1 (activator of basal transcription 1) | 3 | -2.64 | 29.3 | -3.42 | 80.7 | inactive |
| PRPF4 (pre-mRNA splicing tri-snRNP complex factor PRPF4) | 1 | 0.695 | 95.7 | 0.796 | 86.7 | inactive |
| PRPF4 (pre-mRNA splicing tri-snRNP complex factor PRPF4) | 2 | 1.89 | 119 | 2.63 | 66.8 | inactive |
| PRPF4 (pre-mRNA splicing tri-snRNP complex factor PRPF4) | 3 | 0.631 | 94.4 | 1.18 | 77.3 | inactive |
| ACTR1A (actin related protein 1A) | 1 | 0.706 | 95.9 | 0.277 | 99.6 | inactive |
| ACTR1A (actin related protein 1A) | 2 | -0.352 | 74.9 | -0.729 | 101 | inactive |
| ACTR1A (actin related protein 1A) | 3 | 0.0182 | 82.2 | -0.516 | 105 | inactive |
| JAKMIP1 (janus kinase and microtubule interacting protein 1) | 1 | 1.58 | 113 | 2.71 | 62 | inactive |
| JAKMIP1 (janus kinase and microtubule interacting protein 1) | 2 | -0.559 | 70.8 | -0.469 | 89.5 | inactive |
| JAKMIP1 (janus kinase and microtubule interacting protein 1) | 3 | 0.352 | 88.9 | 1.26 | 71.3 | inactive |
| CDC45 (cell division cycle 45) | 1 | 0.492 | 91.7 | -0.0279 | 103 | inactive |
| CDC45 (cell division cycle 45) | 2 | 0.96 | 101 | 1.25 | 81.2 | inactive |
| CDC45 (cell division cycle 45) | 3 | -0.928 | 63.4 | -0.847 | 88.6 | inactive |
